Results as given in PubChem BioAssay AID330 (DTP/NCI, 2004).
The list shows only some results of the screen, not a fair sample: it gathers tests that were run many times, whatever their T/C, doses with no T/C, and many T/C values between a quarter and a half above the control. Other doses and runs of a compound stand elsewhere. T/C is the treated group as % of the vehicle group. Some entries give survivors of the animals treated and no T/C: the source files T/C as zero there, which appears to mark a toxic dose or a test without result, not a measured value. Some doses without a T/C left all or most animals alive at the check, yet need not have been tolerated: the source hardly ever lists a survival T/C far under the control, and the zero likely stands for such cases as well. Counts of survivors are from the toxicity check (mostly the fifth day) where no day follows; animals may have died later. Schedules are NCI's codes, read here as Q, the interval in days (D) or hours (H), X, the number of doses. Some entries were tested several times; their values stand side by side, smallest first. Where survival is the endpoint, this PubChem deposit counts one and a half times the control or more as active, and values a quarter to a half above the control carry no call in these data; other NCI protocols may use other cut-offs. Some T/C values are followed by the survivors on the day toxicity was checked, most often the fifth; where none is given, no animal had died by that day.

Tested on: P388 leukemia ip, CD2F1 mice, survival T/C
Test: NCI In Vivo Anticancer Drug Screen. Data for tumor model P388 Leukemia (intraperitoneal) in CD2F1 (CDF1) mice
Conditions: T/C endpoint: median survival time, higher T/C = longer survival
[1] = dose: 0.13 mg/kg/injection, schedule: Q01DX009 (ip), vehicle: Klucel (hydroxypropylcellulose) (HPC)
[2] = dose: 0.25 mg/kg/injection, schedule: Q01DX009 (ip), vehicle: Klucel (hydroxypropylcellulose) (HPC)
[3] = dose: 200.0 mg/kg/injection, schedule: Q01DX009 (ip), vehicle: saline with Tween-80
[4] = dose: 400.0 mg/kg/injection, schedule: Q01DX009 (ip), vehicle: saline with Tween-80
[5] = dose: 400.0 mg/kg/injection, schedule: Q04DX003 (ip), vehicle: saline with Tween-80
[6] = dose: 200.0 mg/kg/injection, schedule: Q01DX005 (ip), vehicle: Klucel (hydroxypropylcellulose) (HPC)
[7] = dose: 200.0 mg/kg/injection, schedule: Q01DX005 (ip), vehicle: saline
[8] = dose: 240.0 mg/kg/injection, schedule: Q01DX005 (ip), vehicle: saline with Tween-80
[9] = dose: 100.0 mg/kg/injection, schedule: Q01DX009 (ip), vehicle: saline with Tween-80
[10] = dose: 25.0 mg/kg/injection, schedule: Q04DX003 (ip), vehicle: saline with Tween-80
[11] = dose: 100.0 mg/kg/injection, schedule: Q04DX003 (ip), vehicle: saline with Tween-80
[12] = dose: 400.0 mg/kg/injection, schedule: Q04DX002 (ip), vehicle: saline with Tween-80
[13] = dose: 120.0 mg/kg/injection, schedule: Q01DX005 (ip), vehicle: saline with Tween-80
[14] = dose: 50.0 mg/kg/injection, schedule: Q01DX009 (ip), vehicle: saline
[15] = dose: 200.0 mg/kg/injection, schedule: Q01DX009 (ip), vehicle: saline
[16] = dose: 100.0 mg/kg/injection, schedule: Q01DX005 (ip), vehicle: saline with Tween-80
[17] = dose: 25.0 mg/kg/injection, schedule: Q01DX009 (ip), vehicle: saline with Tween-80
[18] = dose: 200.0 mg/kg/injection, schedule: Q01DX005 (ip), vehicle: saline with Tween-80
[19] = dose: 60.0 mg/kg/injection, schedule: Q01DX005 (ip), vehicle: saline with Tween-80

## COc1c(Cl)cc2c(c1OC)N(C)C1N3C(=O)C4(C)SSC3(C(=O)N4C)C(O)C21O (stereo not drawn)
dose: 0.06 mg/kg/injection, schedule: Q01DX009 (ip), vehicle: Klucel (hydroxypropylcellulose) (HPC)
  survivor count: 6 of 6
[1]
  T/C: 131 % of control
  survivor count: 3 of 6
[2]
  T/C: 126 % of control
  survivor count: 0 of 6 and 5 of 6
dose: 1.0 mg/kg/injection, schedule: Q01DX009 (ip), vehicle: Klucel (hydroxypropylcellulose) (HPC)
  survivor count: 5 of 6

## Clc1ccc(C2NCCNCc3ccccc32)cc1 (stereo not drawn)
[3]
  survivor count: 0 of 6
[4]
  survivor count: 0 of 6

## CCSC(=O)N1c2ccc(OC)cc2C=CC1C#N (stereo not drawn)
[5]
  T/C: 127 and 130 % of control
dose: 600.0 mg/kg/injection, schedule: Q04DX003 (ip), vehicle: saline with Tween-80
  T/C: 139 % of control [5 of 6 alive]

## Cc1ccc[n+](Cc2ccccc2Cl)c1
dose: 50.0 mg/kg/injection, schedule: Q01DX005 (ip), vehicle: Klucel (hydroxypropylcellulose) (HPC)
  survivor count: 0 of 6
dose: 100.0 mg/kg/injection, schedule: Q01DX005 (ip), vehicle: Klucel (hydroxypropylcellulose) (HPC)
  survivor count: 0 of 6
[6]
  survivor count: 0 of 6

## Ic1ccccc1C[N+]12CN3CN(CN(C3)C1)C2
[5]
  survivor count: 3 of 6

## CN1C2C=CC1c1c(C3=NC(C)(C)CO3)cccc12 (stereo not drawn)
[7]
  survivor count: 3 of 6

## CC(=Nc1ccc(N(C)C)cc1)c1ccccc1
[8]
  survivor count: 2 of 6

## Clc1cc(-c2csc(Cl)c2)cs1
[9]
  survivor count: 6 of 6

## [Br][Sn]([Br])([CH2]c1ccccc1)[c]1ccccc1
dose: 12.5 mg/kg/injection, schedule: Q04DX003 (ip), vehicle: saline with Tween-80
  T/C: 134 % of control
[10]
  survivor count: 2 of 6
[11]
  survivor count: 0 of 6
dose: 200.0 mg/kg/injection, schedule: Q04DX003 (ip), vehicle: saline with Tween-80
  survivor count: 0 of 6
[5]
  survivor count: 0 of 6

## CCC1OCN2CCCCC12 (stereo not drawn)
dose: 100.0 mg/kg/injection, schedule: Q01DX005 (ip), vehicle: saline
  T/C: 125 % of control [5 of 6 alive]
[7]
  survivor count: 1 of 6

## CCCCCCCCCCCCCCCCOS(=O)(=O)O (tested in a mixture with another compound)
dose: 10.0 mg/kg/injection, schedule: Q01DX009 (ip), vehicle: saline with Tween-80
  survivor count: 6 of 6

## CC1CC(C)S(=O)CS1 (stereo not drawn)
[12]
  survivor count: 0 of 6

## Cc1cc(C)cc(C(=O)NCc2ccc[n+]([O-])c2)c1
dose: 240.0 mg/kg/injection, schedule: Q01DX005 (ip), vehicle: saline
  survivor count: 3 of 6

## c1ccc2c(SCCCCCCSc3c4ccccc4nc4ccccc34)c3ccccc3nc2c1
dose: 240.0 mg/kg/injection, schedule: Q01DX005 (ip), vehicle: Klucel (hydroxypropylcellulose) (HPC)
  survivor count: 6 of 6

## O=C(Cc1cc(-c2ccccc2)nc(=O)[nH]1)c1ccccc1
[12]
  survivor count: 6 of 6

## NCC[Se]CC(N)C(=O)O (stereo not drawn)
dose: 100.0 mg/kg/injection, schedule: Q04DX002 (ip), vehicle: saline
  survivor count: 3 of 6
dose: 200.0 mg/kg/injection, schedule: Q04DX002 (ip), vehicle: saline
  survivor count: 1 of 6
dose: 400.0 mg/kg/injection, schedule: Q04DX002 (ip), vehicle: saline
  survivor count: 1 of 6

## O=C(NC(=O)c1c(F)cccc1F)Nc1cccc(Oc2ncc(Cl)cn2)c1
[13]
  survivor count: 6 of 6
[8]
  survivor count: 6 of 6

## C(=C\c1cccs1)/c1ccnnc1
[14]
  survivor count: 5 of 6
[15]
  survivor count: 2 of 6

## CCO/C=C1/N=C(c2cc(OC)cc(OC)c2)OC1=O
[13]
  survivor count: 5 of 6

## Cc1[nH]c(=O)[nH]c(=O)c1/C=C/C(=O)NC(CO)CSCc1ccccc1 (stereo not drawn)
dose: 50.0 mg/kg/injection, schedule: Q01DX009 (ip), vehicle: other
  survivor count: 5 of 6

## CN(C)C1c2cc3ccccc3nc2-c2ccccc2C1(C)C (stereo not drawn)
[16]
  survivor count: 5 of 5

## O=[N+]([O-])c1cccc(SNc2cccc(Cl)c2)c1
[11]
  survivor count: 6 of 6
[5]
  survivor count: 5 of 6

## CC(=O)NCCSSCCCCSSCCNC(C)=O
[6]
  survivor count: 5 of 5

## C[C@]12CC[C@H]3[C@@H](CCC4=C[C@@H](OC5OCC(OC6OC(CO)C(O)C(O)C6O)C(O)C5O)CC[C@@]43C=O)[C@@]1(O)CCC2C1=CC(=O)OC1 (stereo partly drawn)
dose: 0.25 mg/kg/injection, schedule: Q01DX009 (ip), vehicle: saline with Tween-80
  T/C: 135 % of control

## COC1C(OC(=O)c2ccc(C)[nH]2)C(O)C(Oc2ccc3c(O)c(NC(=O)c4c[nH]c(C(=O)Nc5c(O)c6ccc(OC7OC(C)(C)C(OC)C(OC(=O)c8ccc(C)[nH]8)C7O)c(C)c6oc5=O)c4C)c(=O)oc3c2C)OC1(C)C (stereo not drawn)
[17]
  T/C: 140 % of control
[9]
  survivor count: 3 of 6
[3]
  survivor count: 0 of 6
[4]
  survivor count: 0 of 6

## C=CCNC(=S)Nc1ncn[nH]1
[6]
  survivor count: 0 of 6

## N=C(N)c1ccc(Oc2ccc(Oc3ccc(C(=N)N)cc3)cc2)cc1
dose: 12.5 mg/kg/injection, schedule: Q01DX009 (ip), vehicle: saline
  T/C: 130 % of control
[17]
  survivor count: 0 of 6

## COc1cc(C=Nc2cccc(C(=O)O)c2)ccc1N(CCCl)CCCl
[10]
  T/C: 140 % of control [5 of 6 alive]
[14]
  survivor count: 1 of 6
dose: 100.0 mg/kg/injection, schedule: Q01DX009 (ip), vehicle: saline
  survivor count: 2 of 6
[11]
  survivor count: 6 of 6
dose: 150.0 mg/kg/injection, schedule: Q04DX003 (ip), vehicle: saline with Tween-80
  survivor count: 2 of 6

## Cc1cc2[nH]c(Cl)c(/C=N/Nc3ccccc3[N+](=O)[O-])c2cc1O
dose: 100.0 mg/kg/injection, schedule: Q01DX001 (ip), vehicle: Klucel (hydroxypropylcellulose) (HPC)
  survivor count: 6 of 6
dose: 400.0 mg/kg/injection, schedule: Q01DX001 (ip), vehicle: Klucel (hydroxypropylcellulose) (HPC)
  survivor count: 5 of 6

## N#CN(Cc1ccccc1)Cc1ccccc1.[Cl][Sn]([c]1ccccc1)([c]1ccccc1)[c]1ccccc1
dose: 12.5 mg/kg/injection, schedule: Q01DX005 (ip), vehicle: saline with Tween-80
  survivor count: 0 of 6
dose: 50.0 mg/kg/injection, schedule: Q01DX005 (ip), vehicle: saline with Tween-80
  survivor count: 0 of 6
[16]
  survivor count: 0 of 6
[18]
  survivor count: 0 of 6

## Cc1ccnc(NS(=O)(=O)c2ccc(N=CC3C(=O)N(c4ccccc4)N(c4ccccc4)C3=O)cc2)n1
dose: 100.0 mg/kg/injection, schedule: Q01DX009 (ip), vehicle: Klucel (hydroxypropylcellulose) (HPC)
  survivor count: 6 of 6

## Cc1ccc(-c2cn3nc(-c4ccc5c(c4)OCO5)sc3n2)cc1
[19]
  survivor count: 6 of 6
[8]
  survivor count: 6 of 6

## Cc1ccc(C)c(S(=O)(=O)Nc2c([N+](=O)[O-])cc([N+](=O)[O-])c3ccccc23)c1
dose: 200.0 mg/kg/injection, schedule: Q04DX002 (ip), vehicle: saline with Tween-80
  survivor count: 1 of 6

## CN1Cc2c(cc(CN3CCCCC3)n2C)C(c2ccc(Br)cc2)C1 (stereo not drawn)
[19]
  survivor count: 3 of 6
[13]
  survivor count: 1 of 6
[8]
  survivor count: 0 of 6

## N#CNc1c2ccccc2nc2ccccc12
[13]
  survivor count: 6 of 6
[8]
  survivor count: 6 of 6

## CC(=O)NCCSSCc1ccccc1CS(=O)O
dose: 200.0 mg/kg/injection, schedule: Q01DX005 (ip), vehicle: suspension in saline
  survivor count: 3 of 6

## O=C1OS(=O)(=O)c2cc3c(cc21)C1C(C2C3C3(Cl)C(Cl)=C(Cl)C2(Cl)C3(Cl)Cl)C2(Cl)C(Cl)=C(Cl)C1(Cl)C2(Cl)Cl (stereo not drawn)
[15]
  survivor count: 3 of 6

## CCCCCCCCC(O)C#CC(O)CCCCCCCC (stereo not drawn)
[18]
  survivor count: 5 of 6
